{"source": "patent US9962360B2", "about": "“Compositions and methods for enhancing hair growth, promoting skin regeneration, and wound healing” (The Hospital for Sick Children, priority 2014, dated 2018)", "tested_on": "SKPs", "assay": "Transcriptome analysis of secondary SKP spheres from drug-treated skin", "conditions": "SKPs from drug-treated wounded skin, p<0.01", "data": [{"substance": "trimebutine maleate [TM]", "values": [{"measurement": "number of differentially expressed genes compared to control skin", "value": 291, "unit": "genes"}]}]}
